This is one part of the list.
target: OsWRKY34 (Oryza sativa, UniProt Q0JBA9 1-250); experiment: protein-binding microarray (RPBM); PBS, 2% BSA, 51.3 ng/ul salmon testes DNA, 50 uM zinc acetate, 200 nM TF, 25 C, 1 h; high values mean tight binding; settings: protein: recombinant; tags: N-terminal polyhistidine and DsRed monomer fusion (pET32a); label: CyDye5-dUTP incorporated in the synthesized complementary strand; 3' TTTTT single-stranded linker to array surface; dsDNA, one strand shown
Procedure, shortened: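 Transcription factors, each fused N-terminally to a polyhistidine tag and DsRed, were expressed in E. coli BL21-CodonPlus and purified on Ni–NTA. A custom Agilent array was made double-stranded by primer extension with Cy5-dUTP and blocked with 2% BSA. It was incubated with 200 nM protein in PBS, 2% BSA, salmon testes DNA and 50 µM zinc acetate at 25 °C for 1 h, then washed. The binding signal is per-feature fluorescence intensity (arbitrary units) read on an Axon 4000B scanner.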

Amino acid sequences for entries named in this document (tags omitted).
UniProt Q0JBA9, entry or part of it: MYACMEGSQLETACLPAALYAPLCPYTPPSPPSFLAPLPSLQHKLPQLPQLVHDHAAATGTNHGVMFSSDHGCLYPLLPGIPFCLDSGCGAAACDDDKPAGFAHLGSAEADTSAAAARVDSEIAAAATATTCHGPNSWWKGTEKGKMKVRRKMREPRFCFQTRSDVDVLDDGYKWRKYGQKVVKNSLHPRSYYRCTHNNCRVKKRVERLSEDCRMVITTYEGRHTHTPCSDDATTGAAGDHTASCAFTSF

Sequence	binding signal
GGTCATCATCCTGGTTAGTAACATCTAGGCGTTTTTCATTCGGAGTCACCTAGTGCAG	8370 fluorescence intensity (a.u.)
CGTCGTTGTCGTCCGTAGCGGGAGGGAGGGAGAGAGTACGCGGAGTCACCTAGTGCAG	8400 fluorescence intensity (a.u.)
AATTGGGGTAAAAGTGGGAATGGGGTAACGGAGATCGGAACGGAGTCACCTAGTGCAG	8430 fluorescence intensity (a.u.)
CCTTATTTTGACTATTCTTGTCTCAACTCAGGGATGTCCTCGGAGTCACCTAGTGCAG	9400 fluorescence intensity (a.u.)
GCGCTCTCCGGTGTGGGATCTCCGAGTTTTTTTTTTCGTTCGGAGTCACCTAGTGCAG	9630 fluorescence intensity (a.u.)
TCACTCTCCCATACTACTAGTACCACTCTACTAGACTCCGCGGAGTCACCTAGTGCAG	8500 fluorescence intensity (a.u.)
AAAAATGCTCGGTGATTTTTATTGTTTTTTTTTCTTTTGCCGGAGTCACCTAGTGCAG	8690 fluorescence intensity (a.u.)
GTGTATGTGGATCGAATCGAATTGGAGTTGGTATGGGCGTCGGAGTCACCTAGTGCAG	8050 fluorescence intensity (a.u.)
CTAAATTTGCCATAAATGTTACTACCCTTTTACCTAATATCGGAGTCACCTAGTGCAG	8960 fluorescence intensity (a.u.)
AAACGTACCATTCGGCTTTCCTTTATGTCCTTCCAACACCCGGAGTCACCTAGTGCAG	8580 fluorescence intensity (a.u.)
TCCCTACCTAGCTCGTCTTCCTCTACTACTTATACCCGCCCGGAGTCACCTAGTGCAG	8830 fluorescence intensity (a.u.)
TAATACTATGGTTTCACTGTTAACATAATTCGGCTAGTTACGGAGTCACCTAGTGCAG	8790 fluorescence intensity (a.u.)
CCGTTTTTTTTCGAGAAATTTTTTTTCCGCCCGCTTCCTTCGGAGTCACCTAGTGCAG	11600 fluorescence intensity (a.u.)
GGGGAGTAAAATGGATTTTTTTTCTGTTAAGAAAATGGTTCGGAGTCACCTAGTGCAG	10100 fluorescence intensity (a.u.)
TCGCGTACACCGTAGTTAGCCAAGCCGCTCCGCCTCGTTTCGGAGTCACCTAGTGCAG	9350 fluorescence intensity (a.u.)
GTTTGTATCTCTACTACTCTCTCCGTTTCATATTTTAAGACGGAGTCACCTAGTGCAG	8290 fluorescence intensity (a.u.)
CCCCACCCGATCGCCGCCGCCGCCGCCGCCGCCACCCGCGCGGAGTCACCTAGTGCAG	10300 fluorescence intensity (a.u.)
CTTATGTTGTTTAAACTATCTTACATATTCCCTCTATTTCCGGAGTCACCTAGTGCAG	8300 fluorescence intensity (a.u.)
ATGGGTTGGGACTGTCCTGGTGCGCGATTACTAACGTGGACGGAGTCACCTAGTGCAG	8790 fluorescence intensity (a.u.)
GAAGTTTTTGGCAGGGGTTAGTTTCGAATTAAGTTTTTGACGGAGTCACCTAGTGCAG	13700 fluorescence intensity (a.u.)
TCTCACATGCTTCCGTACGCCTCAACCAATTCTGATTCTGCGGAGTCACCTAGTGCAG	8760 fluorescence intensity (a.u.)

Sequence	binding signal
TGCATAAAAGTCTGTGTCTGAAAGTCATGTCATCACGTATCGGAGTCACCTAGTGCAG	9370 fluorescence intensity (a.u.)
ACCCTCGCTTTCTCCGATCGAATTGCTCGCCCGAGCACCACGGAGTCACCTAGTGCAG	11300 fluorescence intensity (a.u.)
GCTTGCCGTCACTCTCGTCCCGTTTGCCGCTGCACTGCACCGGAGTCACCTAGTGCAG	10600 fluorescence intensity (a.u.)
AACACACCACGGCCGCGGTCGCAACCACCACCTCCTCATCCGGAGTCACCTAGTGCAG	8550 fluorescence intensity (a.u.)
AGTGCGTGCGTACGTGCGGGAGGGAGGAGGAGGGGAGATGCGGAGTCACCTAGTGCAG	8250 fluorescence intensity (a.u.)
CATCATCTCCTTCGCGCCGTCGTCGACCACCATCACCATGCGGAGTCACCTAGTGCAG	8220 fluorescence intensity (a.u.)
GGGTATAAAGTCACTCTATTCGTTCTCACCGTTTTTTCGGCGGAGTCACCTAGTGCAG	8150 fluorescence intensity (a.u.)
CATGTCGACGATCTTCCTAATTTACATATATGTCATGCTTCGGAGTCACCTAGTGCAG	8580 fluorescence intensity (a.u.)
GCAACGCCGCCGTTTTCTTCGCCTCTCACAGAGACGACTCCGGAGTCACCTAGTGCAG	9200 fluorescence intensity (a.u.)
GGCTGTCTCCTCCTTAAGCACCTCCTGCAAAATATTATTACGGAGTCACCTAGTGCAG	8580 fluorescence intensity (a.u.)
ATTTCGATGGGTGGGCTTGGGCTGACAAACAATCACGCTCCGGAGTCACCTAGTGCAG	13300 fluorescence intensity (a.u.)
AATGTGGTGGTGGTGGTGGTGAACGGAGGAGGGAGGGAGCCGGAGTCACCTAGTGCAG	13000 fluorescence intensity (a.u.)
CCTGTGCTGACCTCCTCTACCGTGATGGCCTCCTCGACCTCGGAGTCACCTAGTGCAG	8330 fluorescence intensity (a.u.)
TTCTTAGTTGCTATATGTAGAGTTGGCTTGCATTTTTTTCCGGAGTCACCTAGTGCAG	8810 fluorescence intensity (a.u.)
CTGTCTACATCGCCCGTGTCTTGTGCGTTTGCTCTCTCGCCGGAGTCACCTAGTGCAG	10100 fluorescence intensity (a.u.)
GTGCAGCATGAAGAGGGTTGACCGGGTCGGGTTTGACTTGCGGAGTCACCTAGTGCAG	12500 fluorescence intensity (a.u.)
GTCTTCTCCTGATCGCGGTGGTGTTTTTTTTTTTTGTTTTCGGAGTCACCTAGTGCAG	9620 fluorescence intensity (a.u.)
ATTTGTTACTCCATACTCCCTCCGTCCGTTGTACAATATACGGAGTCACCTAGTGCAG	8070 fluorescence intensity (a.u.)
ACCACCACCACCAGCGCGCGTCTCCGCCTAAACATAGCTACGGAGTCACCTAGTGCAG	9330 fluorescence intensity (a.u.)
ACATGGCTGGTCTCACTGTCAAACTGGCCCCACGCGACCACGGAGTCACCTAGTGCAG	8320 fluorescence intensity (a.u.)
AACTTGGCTGATTTTATTGAGCAGTTTGTTTTTCCAGCTTCGGAGTCACCTAGTGCAG	8350 fluorescence intensity (a.u.)

2 successive records out of the list so far, quoted:
Sequence	binding signal
GGGTATAAAGTCACTCTATTCGTTCTCACCGTTTTTTCGGCGGAGTCACCTAGTGCAG	8150 fluorescence intensity (a.u.)
CATGTCGACGATCTTCCTAATTTACATATATGTCATGCTTCGGAGTCACCTAGTGCAG	8580 fluorescence intensity (a.u.)

— paper PMC7819943, “Rice protein-binding microarrays: a tool to detect cis-acting elements near promoter regions in rice”
